Entries after “also recorded” stand apart in the source; their conditions may differ. At least one structure is not confirmed: it was looked up by name or label, or the drawing left a doubt.
Key:
[1] = system: H. pylori strains 26695 (ATCC 700392), SS1 and B128; assay: In vitro incubation of H. pylori broth cultures with DHA added at time 0 (growth, viable CFU); format: cell-based, Helicobacter pylori
PGE2 = assay: Serum PGE2 in infected INS-GAS mice; format: in vivo; details: DHA 50 μM in drinking water, 8 months of infection
H. pylori strain 26695 = assay: Electron microscopy of H. pylori morphology after DHA treatment; format: cell-based, Helicobacter pylori; details: 100 μM DHA, liquid culture 12 hours, versus controls
[2] = system: gastric inflammatory and hyperplasic lesions; assay: Histopathological analysis and grading of gastric lesions in INS-GAS mice; format: in vivo; details: DHA 50 μM in drinking water, 8 months
[3] = system: gastric mucosa inflammation; assay: Gastric inflammation scores grading in H. pylori infected mice; format: in vivo, C57BL/6 mice
H. pylori strain SS1 = assay: Mice gastric colonization with DHA given for three months prior to infection; format: in vivo, C57BL/6 mice; details: DHA for 3 months prior to infection and continued; infection 3, 6 and 9 months
[4] = system: H. pylori strains 26695, SS1 and B128; assay: In vitro addition of DHA to a 12 hours H. pylori culture (bactericidal/bacteriostatic effect, CFU); format: cell-based, Helicobacter pylori; details: added after 12 hours
Procedure: Stock solutions of DHA were diluted at desired concentrations (from 10 μM to 1000 μM) in Brucella broth (BB) enriched with 10% FBS. […] Each experiment consisting of a control (bacterial medium) and bacteria incubated with DHA at 10 μ[…] and 1000 μM was performed in triplicate. DHA was added at the time 0 of the experiments or after 12 hours. H. pylori broth cultures were incubated microaerophilically, at 37° C. for 48 hours. Every 6 hours, the OD 600 nm of the cultures was measured and 200 μL samples were diluted and plated on blood agar plates for the numeration of viable bacteria (colony-forming-units (CFU)) after 48 hours of incubation at 37° C. The question as to whether DHA has a bactericidal effect was answered by conducting an experiment where DHA was added to a 12 hours H. pylori culture. FIG. 2 represents the viability of the three strains of H. pylori used. Addition of DHA after 12 hours of H. pylori growth led to a decrease of the ability to form CFU in a dose dependent manner.

prostaglandin E2 (PGE2) = assay: Serum prostaglandin E2 levels in H. pylori infected mice; format: in vivo, C57BL/6 mice; details: DHA 50 μM in drinking water; infected 1, 3, 6 and 9 months

CC/C=C\C/C=C\C/C=C\C/C=C\C/C=C\C/C=C\CCC(=O)O [DHA, docosahexaenoic acid]
survival (ability to form colonies) ([1]; DHA 500 μM or higher, three strains): no survival | bacterial viability ([1]; DHA higher than 100 μM, added at time 0): affected strongly | viability of the 3 H. pylori strains ([1]; DHA up to 50 μM, added at time 0): not affected | H. pylori growth ([1]; DHA up to 100 μM, added at time 0, regardless of strain): slight inhibition | level of PGE2 in the sera (PGE2): lower level | membrane of H. pylori (H. pylori strain 26695): exhibited “hole” structures | morphology of H. pylori (H. pylori strain 26695): more stretched and elongated | severity of hyperplasic lesions ([2]; SS1-infected INS-GAS mice): decreases the severity | score grading of infiltrates of PMN and plasmocytes ([2]; only observed in the fundus): slightly decreased | inflammation score ([3]; DHA for 3 months prior to the infection): even a lower inflammation score | inflammation scores ([3]; infected mice supplemented with DHA versus non-supplemented, after 6 or 9 months): lower inflammation scores | inhibition of mice gastric colonization (H. pylori strain SS1): higher within longer periods of infection | viability / growth of H. pylori strains ([4]; DHA higher than 100 μM): complete inhibition of bacterial viability; also recorded: completely arrest H. pylori growth | viability / growth of H. pylori strains ([4]; DHA lower than 100 μM (up to 100 μM)): decreased or maintained stationary; also recorded: bacteriostatic effect | serum PGE2 levels (prostaglandin E2 (PGE2)): drastic inhibitory effect
